Assay results taken from EP0115821A1, “Fluoran compounds” (HODOGAYA CHEMICAL CO., LTD., priority 1983, dated 1984).

Assays:
[1] = Color-development performance test of heat sensitive record sheets; conditions: heat sensitive record sheet with bisphenol A, heated at 150°C for 5 seconds; for Developed color density: Macbeth reflex densitometer RD-514
Protocol: (§1) To 2.0 g of Compound (B) prepared in Example 1, 20 g of water and 20 g of an aqueous solution containing 10% by weight of polyvinyl alcohol were added. The mixture was dispersed and mixed in a ball mill at room temperature for 24 hours to obtain a slurry wherein the particle size of the compound was about 3 µm.
(§2) On the other hand, 7 g of bisphenol A was added to 10 g of water and 40 g of an aqueous solution containing 10% by weight of polyvinyl alcohol. The mixture was dispersed and mixed in a ball mill at room temperature for 24 hours to obtain a slurry.
(§3) Both slurries were mixed, and the mixture was uniformly dispersed and mixed at room temperature for 1 hour, whereby a slurry mixture was prepared. This slurry mixture was coated on one surface of a normal paper of 50 g/m^2 by means of a wire bar coater (wound wire: • 0.35 mm in diameter) in an amount of the coated compound being 1.5 g/m^2 of the paper. The coated paper was dried in air at room temperature, whereby a heat sensitive record sheet having a substantially colorless heat sensitive layer was obtained. This heat sensitive record sheet will be referred to as No. 1.
(§4) In the same manner, heat sensitive record sheets No. 2 and No. 3 were prepared by using Compounds (C) and (D).
(§5) Further, for the purpose of comparison, heat sensitive record sheets No. 4 to No. 8 were prepared in the same manner as above by using known 2-anilino-3-methyl-6-diethylamino-fluoran [Compound (E)], 2-anilino-3-methyl-6-N-methyl-N-cyclohexylamino-fluoran [Compound (F)], 2-benzylamino-6-diethylamino-fluoran [Compound (A-1)], 2-(2-chlorobenzylamino)-6-diethylamino-fluoran [Compound (A-2)] and 2-(4-chlorobenzylamino)-6-diethylamino-fluoran [Compound(A-3)].
Heat sensitive record sheets No. 1 to No. 3 and comparative sheets No. 4 to No. 8 were heated at a temperature of 150°C for 5 seconds, whereby the developed color hue, the developed color density and the initial color density were measured by means of Macbeth reflex densitometer RD-514 model with a visualfilter (Wratten # 106).

[2] = Color-development characteristic test of heat sensitive record sheets; conditions: heated from 70 to 160°C for 5 seconds under a load of 100 g/cm^2; calculated from temperature vs color density
Protocol: as §1, §2, §3, §4, §5
Heat sensitive record sheets No. 1 to No. 3 and comparative sheets No. 4 to No. 8 were heated for color-development within the temparature range of from 70 to 160°C for 5 seconds, whereby the color density at each temperature was measured in the same manner as in the above test (1), and the color-development initiation temperature and the rising for the color-development were calculated from the relationship between the temperature and the color density.

CCN(CC)c1ccc2c(c1)Oc1ccc(NCc3ccc(Cl)cc3)cc1C21OC(=O)c2ccccc21 (stereo not drawn) [(A-3), 2-(4-chlorobenzylamino)-6-diethylamino fluoran]
Developed color hue [1]: Greenish black | Developed color density [1]: 1.12 | Color-development initiation temperature(°C) [2]: 95 °C

CCN(CC)c1ccc2c(c1)Oc1ccc(NCc3ccccc3)cc1C21OC(=O)c2ccccc21 (stereo not drawn) [Compound (A-1), 2-benzylamino-6-diethylamino fluoran]
Developed color hue [1]: Greenish black | Developed color density [1]: 1.12 | Color-development initiation temperature(°C) [2]: 96 °C

CCN(CC)c1ccc2c(c1)Oc1ccc(NCc3ccccc3Cl)cc1C21OC(=O)c2ccccc21 (stereo not drawn) [Compound (A-2), 2-(2-chlorobenzylamino)-6-diethylamino fluoran]
Developed color hue [1]: Greenish black | Developed color density [1]: 1.13 | Color-development initiation temperature(°C) [2]: 96 °C

CCCCN(CCCC)c1ccc2c(c1)Oc1ccc(NCc3ccccc3Cl)cc1C21OC(=O)c2ccccc21 (stereo not drawn) [Compound (B), 2-(2-chlorobenzylamino)-6-di-n-butylamino-fluoran]
Developed color hue [1]: Greenish black | Developed color density [1]: 1.15 | Color-development initiation temperature(°C) [2]: 92 °C

CCCCN(CCCC)c1ccc2c(c1)Oc1ccc(NCc3cccc(Cl)c3)cc1C21OC(=O)c2ccccc21 (stereo not drawn) [Compound (C), 2-(3-chlorobenzylamino)-6-di-n-butylamino-fluoran]
Developed color hue [1]: Greenish black | Developed color density [1]: 1.16 | Color-development initiation temperature(°C) [2]: 91 °C

CCCCN(CCCC)c1ccc2c(c1)Oc1ccc(NCc3ccc(Cl)cc3)cc1C21OC(=O)c2ccccc21 (stereo not drawn) [Compound (D), 2-(4-chlorobenzylamino)-6-di-n-butylamino-fluoran]
Developed color hue [1]: Greenish black | Developed color density [1]: 1.18 | Color-development initiation temperature(°C) [2]: 88 °C

CCN(CC)c1ccc2c(c1)Oc1cc(C)c(Nc3ccccc3)cc1C21OC(=O)c2ccccc21 (stereo not drawn) [Compound (E), 2-anilino-3-methyl-6-diethylamino-fluoran]
Developed color hue [1]: Reddish black | Developed color density [1]: 1.12 | Color-development initiation temperature(°C) [2]: 85 °C

Cc1cc2c(cc1Nc1ccccc1)C1(OC(=O)c3ccccc31)c1ccc(N(C)C3CCCCC3)cc1O2 (stereo not drawn) [Compound (F), 2-anilino-3-methyl-6-N-methyl-N-cyclohexylamino-fluoran]
Developed color hue [1]: Reddish black | Developed color density [1]: 1.10 | Color-development initiation temperature(°C) [2]: 92 °C
